Taken from: PubChem BioAssay AID1224828 (NIAID, 2016)
Here is an unselected part of about 17,000 deposited reagents. 762 of them (4.5%) count as active. 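Active calls include both raised and lowered p65 entry, mostly lowered; wells with fewer than 50 cells lack a z-score.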 The raw values are shown without normalisation.

Test: 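Find genes required for NF-kappaB p65 moving into the nucleus after LPS in mouse macrophages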 (primary screen)
System: mouse RAW264.7 G9 macrophage reporter cells (GFP-p65, Tnf promoter-mCherry)
Knock-down reagent: siRNA pool against mouse genes, 100 nM
Timing: 2 days siRNA transfection, then 40 min LPS before fixation
Treatment: LPS (Salmonella minnesota R595) at 10 ng/ml
Detection: 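Microscopy ratio of nuclear to perinuclear-ring GFP-p65 signal, scaled to the plate median; gene score is the average of two replicate robust z-scores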
Reading the numbers: p65 translocation robust z-score: higher = more nuclear NF-kappaB p65 after LPS than the plate median; nuclear/cytoplasmic p65 ratio: higher = more nuclear NF-kappaB p65
Active means: 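Called active when z exceeds 3.3 or falls under -1.56 (median of Tlr4 controls), giving activity score of at least 50; no calls for control wells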
Meaning of the calls: active = hit (p65 shift raised or lowered); inactive = no clear change

For Cdk4 the deposit lists p65 translocation robust z-score 0.63; nuclear/cytoplasmic p65 ratio, rep 1 = 1.81; nuclear/cytoplasmic p65 ratio, rep 2 = 1.45; low cell count flag enough cells to score; inactive.
After knock-down of Nfat5 the results were p65 translocation robust z-score 2.19; nuclear/cytoplasmic p65 ratio, rep 1 = 1.65; nuclear/cytoplasmic p65 ratio, rep 2 = 1.7; low cell count flag enough cells to score; inactive.
Silencing of Siglecl2 gave: nuclear/cytoplasmic p65 ratio, rep 1 = 1.28; nuclear/cytoplasmic p65 ratio, rep 2 = 0; low cell count flag fewer than 50 cells per well; well left out of scoring; inactive.
Knock-down of Ccdc97 came out at: nuclear/cytoplasmic p65 ratio, rep 1 = 1.4; nuclear/cytoplasmic p65 ratio, rep 2 = 1.22; low cell count flag fewer than 50 cells per well; well left out of scoring; inactive.
Wfdc15b scored p65 translocation robust z-score -0.3; nuclear/cytoplasmic p65 ratio, rep 1 = 1.32; nuclear/cytoplasmic p65 ratio, rep 2 = 1.57; low cell count flag enough cells to score; inactive.
For Eras, the entry reads p65 translocation robust z-score -0.87; nuclear/cytoplasmic p65 ratio, rep 1 = 1.39; nuclear/cytoplasmic p65 ratio, rep 2 = 1.42; low cell count flag enough cells to score; inactive.
Against Adam29 the deposit lists p65 translocation robust z-score -0.65; nuclear/cytoplasmic p65 ratio, rep 1 = 1.5; nuclear/cytoplasmic p65 ratio, rep 2 = 1.54; low cell count flag enough cells to score; inactive.
Silencing of Gdap10 resulted in: p65 translocation robust z-score -0.94; nuclear/cytoplasmic p65 ratio, rep 1 = 1.47; nuclear/cytoplasmic p65 ratio, rep 2 = 1.32; low cell count flag enough cells to score; inactive.
For Vtn the deposit lists p65 translocation robust z-score -0.06; nuclear/cytoplasmic p65 ratio, rep 1 = 1.6; nuclear/cytoplasmic p65 ratio, rep 2 = 1.4; low cell count flag enough cells to score; inactive.
After knock-down of Rasd1 the results were p65 translocation robust z-score -1.61; nuclear/cytoplasmic p65 ratio, rep 1 = 1.28; nuclear/cytoplasmic p65 ratio, rep 2 = 2.26; low cell count flag enough cells to score; active.
For Ap5z1, the entry reads nuclear/cytoplasmic p65 ratio, rep 1 = 1.06; nuclear/cytoplasmic p65 ratio, rep 2 = 1.43; low cell count flag fewer than 50 cells per well; well left out of scoring; inactive.
After knock-down of Spaca4, the screen gave p65 translocation robust z-score 0.45; nuclear/cytoplasmic p65 ratio, rep 1 = 1.45; nuclear/cytoplasmic p65 ratio, rep 2 = 1.57; low cell count flag enough cells to score; inactive.
Silencing of Tmem71 gave: p65 translocation robust z-score -2.38; nuclear/cytoplasmic p65 ratio, rep 1 = 1.15; nuclear/cytoplasmic p65 ratio, rep 2 = 1.42; low cell count flag enough cells to score; active.
Depletion of Mmp20 resulted in: p65 translocation robust z-score -0.51; nuclear/cytoplasmic p65 ratio, rep 1 = 1.33; nuclear/cytoplasmic p65 ratio, rep 2 = 1.32; low cell count flag enough cells to score; inactive.

Reformatted: entries from further up.
Rasd1
- p65 translocation robust z-score: -1.61
- nuclear/cytoplasmic p65 ratio, rep 1: 1.28
- nuclear/cytoplasmic p65 ratio, rep 2: 2.26
- low cell count flag: enough cells to score
- outcome: active

Ap5z1
- nuclear/cytoplasmic p65 ratio, rep 1: 1.06
- nuclear/cytoplasmic p65 ratio, rep 2: 1.43
- low cell count flag: fewer than 50 cells per well; well left out of scoring
- outcome: inactive
